Results are given in words; binding and its absence hold for the method and conditions named. Some binding calls cover weakened binding; strength is not graded here.
Columns and labels:
[1] = molecular target: Drosophila melanogaster CTP synthase (dmCTPS) (Drosophila melanogaster) (UniProt Q9VUL1); experiment: cryo-electron tomography; CTP-state: 50 uM purified dmCTPS with 2 mM CTP and 10 mM magnesium ions, room temperature 30 min, mixed with an equal volume of 10 nm gold particles, vitrified; filaments, bundles and networks seen in tomograms; both purified
[2] = molecular target: Drosophila melanogaster CTP synthase (dmCTPS) (Drosophila melanogaster) (UniProt Q9VUL1); experiment: cryo-electron tomography; DON-state: 50 uM purified dmCTPS with 60 uM DON, 2 mM ATP, 2 mM UTP, 2 mM GTP and 10 mM magnesium ions, room temperature 30 min, mixed with an equal volume of 10 nm gold particles, vitrified; filaments, bundles and networks seen in tomograms; both purified

B1: Drosophila melanogaster CTP synthase (dmCTPS) (enzyme, UniProt Q9VUL1 1-627)
chain: MKYILVTGGVISGVGKGVIASSFGTLLKSCGLDVTSIKIDPYINIDAGTFSPYEHGEVYVLDDGAEVDLDLGNYERFLDVTLHRDNNITTGKIYKLVIEKERTGEYLGKTVQVVPHITDAIQEWVERVAQTPVQGSSKPQVCIVELGGTIGDIEGMPFVEAFRQFQFRVKRENFCLAHVSLVPLPKATGEPKTKPTQSSVRELRGCGLSPDLIVCRSEKPIGLEVKEKISNFCHVGPDQVICIHDLNSIYHVPLLMEQNGVIEYLNERLQLNIDMSKRTKCLQQWRDLARRTETVRREVCIAVVGKYTKFTDSYASVVKALQHAALAVNRKLELVFIESCLLEEETLHSEPSKYHKEWQKLCDSHGILVPGGFGSRGMEGKIRACQWARENQKPLLGICLGLQAAVIEFARNKLGLKDANTTEIDPNTANALVIDMPEHHTGQLGGTMRLGKRITVFSDGPSVIRQLYGNPKSVQERHRHRYEVNPKYVHLLEEQGMRFVGTDVDKTRMEIIELSGHPYFVATQYHPEYLSRPLKPSPPFLGLILASVDRLNQYIQRGCRLSPRQLSDASSDEEDSVVGLAGATKSLSSLKIPITPTNGISKSCNGSISTSDSEGACGGVDPTNGHK
binding [1]: binds
binding [2]: binds

Source: article PMC7618999
